“And” between values parts separate entries of the source, which are not always exact repeats. Identical values can stand only once. This list was built around the results that the source calls inconclusive (neither active nor inactive); the mix of calls is not that of the screen. Potencies beside an inconclusive call are fits to weak or partial responses and may not hold up. The source holds several records for some structures; these can differ, active in one and inactive in another. The source made the active and inactive calls. Calls follow the shape of the full dose curve.
Test: G protein-coupled receptor (GPCR) small molecule agonists, calcium flux assay: HEK293 wild type cell line counter screen (AID 1920065)
Conditions: HEK293 WT calcium flux, fluorescence, agonist mode; series mostly up to 57.6 µM; activation: at the top concentration
Description: U.S. Tox21 Program National Center for Advancing Translational Sciences [NCATS] Division of Preclinical Innovation [DPI] U.S. Environmental Protection Agency [EPA] National Institutes of Environmental Health Sciences [NIEHS] National Toxicology Program [NTP] U.S. Food and Drug Administration [FDA] Assay overview: The increased intracellular calcium release that occurred upon G protein-coupled receptor (GPCR) activation led to the frequent use of calcium flux assays to detect GPCR activation. For the purpose of studying and screening compounds that may activate GPCR, receptor-overexpressing models were typically generated using Hek293 wild-type (WT) cells. In order to eliminate the compounds that may have induced calcium release for non-specific activation, a counter-assay utilizing calcium flux on Hek293 WT cells was performed. The data were formulated in order to serve as a control for any calcium flux detection utilizing Hek293 cells with either GPCR overexpression or gene modification. The procurement of Hek293 WT cells from ATCC. Fluorescence intensity can be utilized to determine the activation of the compound in a calcium flux assay. As a counter control, this cell line was utilized to screen the Tox21 10K compound library.
Assay Protocol Summary: Hek293 cells were dispensed at 1500cells/4uL/well in 1536-well black wall/clear bottom plates using a multidrop dispenser. After the assay plates were incubated at a 37 C/5% CO2 incubator for 18 hours, 4 uL of Calcium Dye Solution was added to each well. The plates were incubated at 37 C for 1 hour. For agonist mode, 23 nL of compounds dissolved in DMSO, positive control (ATP) or DMSO only was transferred to the assay plate by a pin tool station. The fluorescence intensity in the plates was measured using FDSS 7000EX kinetic plate reader with a filter set of Ex/Em=480/540 for 3 min at 1 sec intervals. Each test compound was measured at 15 concentrations and in triplicates.
% is scaled to controls: 0 for no effect and ±100 for the full control effect; potency is read from the fitted curve at half-maximal effect.

Compound	Potency	activation
CCCC(=O)OC[C@@H](OC(=O)CCC)[C@@H](OC(=O)CCC)[C@H](Cn1c2nc(=O)[nH]c(=O)c-2nc2cc(C)c(C)cc21)OC(=O)CCC	active: 15.1 µM	–
CCCCCCCCCCOCC(O)CN (stereo not given)	–	inactive: -0.0614% [at 26.5 µM]
NC(=Nc1ccccc1)Nc1ccccc1	inconclusive: 19 µM [activator]	–
Cc1cc2nc3c(=O)[nH]c(=O)nc-3n(C[C@H](O)[C@H](O)[C@H](O)CO)c2cc1C	active: 38.5 µM and active: 32.2 µM and active: 9.28 µM	–
N=C(N=C(N)N)N1CCOCC1	–	inactive: 1.1% [at 26.5 µM]
CCCCCCCCCC(=O)N(C)C	–	inactive: -0.255%
COc1cc(/C=C/C(=O)CC(=O)/C=C/c2ccc(O)c(OC)c2)ccc1O	inconclusive: 34.9 µM [activator, partial curve]	–
CCCCCCCCCCCCCCC[C@H](O)[C@@H](N)CO	inconclusive: 19 µM [activator, single point]	–
CCC(C(=O)NC(N)=O)c1ccccc1 (stereo not given)	–	inactive: -0.356%
NC(=O)c1ccc([N+](=O)[O-])cc1Cl	inactive	–
O=C(Nc1ccc(Oc2ccc(Cl)cc2)c(Cl)c1)c1cc(I)cc(I)c1O	–	inactive: 1.49% [at 26.5 µM]
CC(=O)NCCCS(=O)(=O)O	inconclusive: 18.9 µM [activator, single point]	–
O=C(Nc1ccccc1)c1cc(Cl)ccc1O	active: 12.3 µM	–
Cn1cnc([N+](=O)[O-])c1Sc1ncnc2nc[nH]c12	inconclusive: 43.4 µM [activator, single point]	–
O=[N+]([O-])c1cc(C2CCCCC2)c(O)c([N+](=O)[O-])c1	inconclusive: 34.6 µM [activator, partial curve, poor fit]	–
COc1ccc(C)cc1N	inactive	–
CCCCCCCCCCCCCCNCCO	–	inactive: -0.771% [at 26.5 µM]
O=[N+]([O-])c1ccc(O)cc1C(F)(F)F	inconclusive: 30.9 µM [activator, partial curve]	–
CC1CC(O)CC(C)(C)C1 (stereo not given)	–	inactive: -0.021%
Cc1cc(Nc2ccc(O)cc2)ccc1N	–	inactive: 0.0903%

Compound	Potency	activation
CC(=O)Oc1ccccc1C(=O)Nc1ncc([N+](=O)[O-])s1	inconclusive: 19 µM [activator, single point]	–
[Cl][Au]([Cl])[Cl]	–	inactive: -1.52%
O=C1OC2(c3ccccc31)c1cc(I)c(O)c(I)c1Oc1c2cc(I)c(O)c1I	active: 22.1 µM [middle of 4 runs]	–
CN(CC1(C)CCCO1)S(=O)(=O)c1ccc(Cl)c(S(N)(=O)=O)c1 (stereo not given)	–	inactive: 1.5% [at 26.5 µM]
CC(C)CCCC(C)CC=O (stereo not given)	inconclusive: 43.6 µM [activator, single point]	–
CCN(CC)C(=S)SSC(=S)N(CC)CC	active: 25.1 µM and inconclusive: 19 µM [activator, single point]	–
CCN(CC)CCCN(c1ccccc1)C1Cc2ccccc2C1	inconclusive: 19 µM [activator]	–
COc1ccc2cc(S(=O)(=O)N[C@H](CC(=O)N[C@H](Cc3ccc(CN4[C@H](C)CCC[C@@H]4C)cc3)C(=O)N(C)C(C)C)c3ccc4c(c3)OCO4)ccc2c1	–	inactive: -1.17%
O=C(Nc1ncc([N+](=O)[O-])s1)c1cccs1	inconclusive: 16.9 µM [activator, partial curve]	–
Oc1c(Cl)cc(Cl)cc1Sc1cc(Cl)cc(Cl)c1O	inactive	–
C[Si](C)(C)N[Si](C)(C)C	inactive	–
Nc1ccc2c(c1)CN1C(=O)c3ccccc3C1=N2	inconclusive: 8.27 µM [activator, partial curve, poor fit]	–
O=C1OC2(c3cc(Br)c(O)c(Br)c3Oc3c2cc(Br)c(O)c3Br)c2c(Cl)c(Cl)c(Cl)c(Cl)c21	inconclusive: 39 µM [activator, single point] and inconclusive: 23.6 µM [activator, partial curve, poor fit]	–
C[n+]1c2cc(N)ccc2cc2ccc(N)cc21 (tested in a mixture with another compound)	active: 16.9 µM	–
CCCCCc1ccc(N)cc1	–	inactive: 1.97%
O=C(Nc1ccc(Cl)c(Cl)c1)c1cc(Cl)cc(Cl)c1O	inconclusive: 3.47 µM [activator, full curve, poor fit]	–
OCCN1CN(CCO)CN(CCO)C1	–	inactive: 0.0305%
NS(=O)(=O)c1cc(-c2nn[nH]n2)c(NCc2cccs2)cc1Cl	–	inactive: 0.831% [at 26.5 µM]
Cc1ccc(S(=O)(=O)C(I)I)cc1	inconclusive: 38.9 µM [activator, partial curve, poor fit]	–
